Data reported in patent US20260248894A1, “COMBINATION THERAPY FOR PRETERM INFANTS” (Oak Hill Bio Ltd, priority 2022, published 2026).

The chains behind the UniProt entries cited, without tags or fusion partners. Residues count along the entry.
UniProt P05019, 49-118 limits assumed, stated change not applied: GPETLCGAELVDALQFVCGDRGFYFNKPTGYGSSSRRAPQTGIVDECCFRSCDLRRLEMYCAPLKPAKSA
UniProt P17936, 28-291, stated change not applied: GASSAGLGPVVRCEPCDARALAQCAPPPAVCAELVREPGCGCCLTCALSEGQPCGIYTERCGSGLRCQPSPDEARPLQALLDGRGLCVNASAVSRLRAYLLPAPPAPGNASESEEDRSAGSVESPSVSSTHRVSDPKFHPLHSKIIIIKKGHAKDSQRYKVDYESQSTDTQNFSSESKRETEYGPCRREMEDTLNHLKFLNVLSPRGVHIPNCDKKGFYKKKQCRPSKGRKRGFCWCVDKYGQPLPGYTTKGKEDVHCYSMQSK

Target: T1, rhIGF-1/rhIGFBP-3 drug product (Homo sapiens, UniProt P05019+P17936, DEL119-195)
T1 construct: purchased Takeda, Lexington, MA, USA
Experiment: In vitro physical compatibility of test medications mixed with rhIGF-1/rhIGFBP-3 (visual observation, OD320, pH, osmolality)
Format: physicochemical
Parameters: key to Physical compatibility: Yes: Test medications were considered physically compatible with rhIGF-1/rhIGFBP-3 if there was no observed change in color, precipitation, turbidity, or gas evolution, or if there was no clinically relevant change in osmolality or pH

## CN1CC[C@]23c4c5ccc(O)c4O[C@H]2[C@@H](O)C=C[C@H]3[C@H]1C5.O=S(=O)(O)O [Morphine sulfate]
  Physical compatibility: Yes
  physical compatibility with rhIGF-1/rhIGFBP-3: physical compatibility was established
